Here are results for one molecule from US5618681A, “Polyaromatic hydrocarbon (PAH) immunoassay method, its components and a kit for use in performing the same” (priority 1995, dated 1997).

For the series, the system named is anti-PAH monoclonal antibody. In words: Sensitivity profiles of the PAH immunoassay using phenanthrene spikes compared to the kit standard. The format is binding, Balb/c mice.

In the case of `c1ccc2c(c1)ccc1ccccc12` [Phenanthrene, reference compound], for the setting “0 ppm and 1 ppm phenanthrene levels, 4° C. to 32° C.”, the “confidence in results at different operating temperatures” value was at least 95%. Also, the “confidence level in positive results” value (phenanthrene at 1 ppm or above, relative to 0.65 ppm kit standard, room temperature) is listed as at least 95%.
